Assay results taken from the supplement of paper PMC8007513.
The other results are listed elsewhere or left out. Single values are uncertain, as repeats are few or missing.

System: Saccharomyces cerevisiae BY4743
Experiment: growth (OD600) relative to untreated control; higher = less growth inhibition
Settings: compound concentration: 133 uM; 20 h
Description: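 NMCCC compounds (133 uM, no IPBC) tested alone against Saccharomyces cerevisiae BY4743 in YPD, 96-well plates, starting OD600 ~0.1. Growth was read as OD600 at 20 h and expressed as % of the untreated control. Single pass.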

SMILES	growth [%]
Cc1cccc(-n2ccnc2SCC(=O)Nc2ccccc2S(=O)(=O)C(F)F)c1	101
CC(C)CC(NS(=O)(=O)c1ccc2c(c1)CCCC(=O)N2)C(=O)N1CCOCC1 (stereo not given)	95.7
CN(C)S(=O)(=O)c1ccc2c(c1)N(CC(=O)N1CCCCCC1)CCS2	101
O=C(Cc1cccc(F)c1)NCC(=O)Nn1cnc2ccccc21	102
Cc1ccc(S(=O)(=O)N(C)c2ccc(C(=O)Nc3ncccc3O)cc2)cc1	104
Cn1cccc1C(=O)NC(=O)COc1ccccc1C#N	98.3
CC(Oc1ccc(Cl)cc1C(N)=O)C(=O)Nc1ccc(C#N)cc1 (stereo not given)	108
COc1ccccc1C(=O)NCCc1nc2cc(NC(=O)CC(C)C)ccc2n1C	103
COc1cccc(CNC(=O)N2CCCn3nc(C)cc32)c1	104
COc1ccc(Cl)cc1NC(=O)CSc1nccn1C1CCCC1	96
CC(C)CCN(Cc1ccco1)S(=O)(=O)c1ccc2c(c1)C(C)(C)C(=O)N2C	94.9
COc1ccc(C(CNC(=O)c2ccc(NS(=O)(=O)c3ccc(F)c(C)c3)cc2)N(C)C)cc1 (stereo not given)	110
COc1cc(C(=O)OCC(=O)NC2(C#N)CCCC2)cc2c1OCCO2	105
CCN(CC)C1=CC2=C(C=C1F)C(=O)\C(=C/N2C)[S](=O)(=O)C3=CC=C(C)C=C3	97.9
CO\C1=C\N(CC(=O)NCC2=CC=C(F)C=C2)\C(=C/C1=O)CN3CCOCC3	101

2 entries from above in a different format:

| SMILES | growth [%] |
| --- | --- |
| Cc1ccc(S(=O)(=O)N(C)c2ccc(C(=O)Nc3ncccc3O)cc2)cc1 | 104 |
| Cn1cccc1C(=O)NC(=O)COc1ccccc1C#N | 98.3 |
